From the supplement of paper PMC10849652
Some of the results follow.

Sequences of proteins named here, by UniProt entry; tags and fusion partners are left off. A change or cut given only in a name is not applied to a line headed by its entry.
UniProt P50395: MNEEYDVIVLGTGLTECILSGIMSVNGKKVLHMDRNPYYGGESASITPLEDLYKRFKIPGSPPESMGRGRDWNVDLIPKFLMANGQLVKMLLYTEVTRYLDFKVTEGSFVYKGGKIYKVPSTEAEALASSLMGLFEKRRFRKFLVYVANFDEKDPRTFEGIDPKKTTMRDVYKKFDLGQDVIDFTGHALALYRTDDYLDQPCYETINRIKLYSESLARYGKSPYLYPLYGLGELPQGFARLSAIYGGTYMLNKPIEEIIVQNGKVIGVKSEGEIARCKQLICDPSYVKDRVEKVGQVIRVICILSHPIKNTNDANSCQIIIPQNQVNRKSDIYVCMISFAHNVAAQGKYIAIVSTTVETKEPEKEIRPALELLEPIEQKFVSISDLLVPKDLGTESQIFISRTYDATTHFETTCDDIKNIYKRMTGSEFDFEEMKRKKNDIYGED
UniProt P51570: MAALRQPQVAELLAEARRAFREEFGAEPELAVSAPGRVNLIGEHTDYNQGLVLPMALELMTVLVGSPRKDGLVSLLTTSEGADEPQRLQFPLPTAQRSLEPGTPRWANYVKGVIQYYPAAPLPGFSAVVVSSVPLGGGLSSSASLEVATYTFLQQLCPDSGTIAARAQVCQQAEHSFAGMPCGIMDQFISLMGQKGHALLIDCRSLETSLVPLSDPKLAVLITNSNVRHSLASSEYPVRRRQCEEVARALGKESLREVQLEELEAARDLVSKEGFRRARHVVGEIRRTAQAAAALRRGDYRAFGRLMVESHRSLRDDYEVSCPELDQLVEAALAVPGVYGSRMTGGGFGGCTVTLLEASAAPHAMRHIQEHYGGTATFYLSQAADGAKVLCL
UniProt O14893: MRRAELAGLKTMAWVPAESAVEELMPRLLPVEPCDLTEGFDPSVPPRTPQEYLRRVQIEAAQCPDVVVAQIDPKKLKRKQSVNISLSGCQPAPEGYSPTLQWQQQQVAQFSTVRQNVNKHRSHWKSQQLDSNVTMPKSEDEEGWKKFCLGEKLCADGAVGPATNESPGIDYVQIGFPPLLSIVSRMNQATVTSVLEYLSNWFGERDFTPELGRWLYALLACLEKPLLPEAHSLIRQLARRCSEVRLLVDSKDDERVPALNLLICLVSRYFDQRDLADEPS
UniProt A2VDF0: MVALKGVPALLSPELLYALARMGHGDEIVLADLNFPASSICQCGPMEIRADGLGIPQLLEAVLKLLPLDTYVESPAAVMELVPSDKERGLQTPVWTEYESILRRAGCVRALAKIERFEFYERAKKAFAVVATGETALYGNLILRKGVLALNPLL
UniProt P19526, whole entry, looked up: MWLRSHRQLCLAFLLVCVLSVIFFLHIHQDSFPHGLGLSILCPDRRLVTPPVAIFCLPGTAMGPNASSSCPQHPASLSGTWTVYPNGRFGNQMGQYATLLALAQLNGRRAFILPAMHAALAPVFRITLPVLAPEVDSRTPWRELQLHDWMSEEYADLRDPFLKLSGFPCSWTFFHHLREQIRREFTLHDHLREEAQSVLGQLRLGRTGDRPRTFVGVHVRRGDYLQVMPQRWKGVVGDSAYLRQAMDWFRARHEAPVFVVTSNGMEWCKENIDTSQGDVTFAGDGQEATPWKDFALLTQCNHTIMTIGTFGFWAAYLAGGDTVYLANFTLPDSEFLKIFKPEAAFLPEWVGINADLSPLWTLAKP
UniProt Q96DB9: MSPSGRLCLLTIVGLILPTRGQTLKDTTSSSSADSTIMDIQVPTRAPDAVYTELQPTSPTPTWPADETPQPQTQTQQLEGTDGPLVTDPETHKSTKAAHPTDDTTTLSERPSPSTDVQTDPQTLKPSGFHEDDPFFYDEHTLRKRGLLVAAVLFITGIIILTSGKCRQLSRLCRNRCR
UniProt Q05932: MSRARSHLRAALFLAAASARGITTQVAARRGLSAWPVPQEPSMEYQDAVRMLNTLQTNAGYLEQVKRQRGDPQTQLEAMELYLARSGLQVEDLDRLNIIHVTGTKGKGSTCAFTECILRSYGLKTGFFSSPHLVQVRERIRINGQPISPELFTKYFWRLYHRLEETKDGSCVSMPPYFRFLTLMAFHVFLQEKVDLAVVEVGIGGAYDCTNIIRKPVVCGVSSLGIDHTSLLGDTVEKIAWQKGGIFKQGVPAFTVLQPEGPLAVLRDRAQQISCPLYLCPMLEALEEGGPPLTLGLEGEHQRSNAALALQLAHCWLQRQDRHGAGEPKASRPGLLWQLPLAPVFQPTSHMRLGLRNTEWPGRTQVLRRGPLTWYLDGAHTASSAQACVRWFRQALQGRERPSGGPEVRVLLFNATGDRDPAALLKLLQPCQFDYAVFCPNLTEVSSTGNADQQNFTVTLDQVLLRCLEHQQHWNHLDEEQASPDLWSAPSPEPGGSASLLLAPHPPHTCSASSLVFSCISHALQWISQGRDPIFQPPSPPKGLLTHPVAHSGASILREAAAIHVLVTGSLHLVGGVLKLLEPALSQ
UniProt Q8IVV7: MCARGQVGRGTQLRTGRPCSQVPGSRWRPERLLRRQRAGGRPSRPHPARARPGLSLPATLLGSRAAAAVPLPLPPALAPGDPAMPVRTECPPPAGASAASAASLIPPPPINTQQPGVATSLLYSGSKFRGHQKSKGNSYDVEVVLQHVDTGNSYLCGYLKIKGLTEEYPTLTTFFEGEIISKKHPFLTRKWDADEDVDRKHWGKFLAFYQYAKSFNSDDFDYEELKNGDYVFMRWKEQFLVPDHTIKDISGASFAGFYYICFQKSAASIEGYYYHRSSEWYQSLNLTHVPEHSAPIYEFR
UniProt Q8IY81: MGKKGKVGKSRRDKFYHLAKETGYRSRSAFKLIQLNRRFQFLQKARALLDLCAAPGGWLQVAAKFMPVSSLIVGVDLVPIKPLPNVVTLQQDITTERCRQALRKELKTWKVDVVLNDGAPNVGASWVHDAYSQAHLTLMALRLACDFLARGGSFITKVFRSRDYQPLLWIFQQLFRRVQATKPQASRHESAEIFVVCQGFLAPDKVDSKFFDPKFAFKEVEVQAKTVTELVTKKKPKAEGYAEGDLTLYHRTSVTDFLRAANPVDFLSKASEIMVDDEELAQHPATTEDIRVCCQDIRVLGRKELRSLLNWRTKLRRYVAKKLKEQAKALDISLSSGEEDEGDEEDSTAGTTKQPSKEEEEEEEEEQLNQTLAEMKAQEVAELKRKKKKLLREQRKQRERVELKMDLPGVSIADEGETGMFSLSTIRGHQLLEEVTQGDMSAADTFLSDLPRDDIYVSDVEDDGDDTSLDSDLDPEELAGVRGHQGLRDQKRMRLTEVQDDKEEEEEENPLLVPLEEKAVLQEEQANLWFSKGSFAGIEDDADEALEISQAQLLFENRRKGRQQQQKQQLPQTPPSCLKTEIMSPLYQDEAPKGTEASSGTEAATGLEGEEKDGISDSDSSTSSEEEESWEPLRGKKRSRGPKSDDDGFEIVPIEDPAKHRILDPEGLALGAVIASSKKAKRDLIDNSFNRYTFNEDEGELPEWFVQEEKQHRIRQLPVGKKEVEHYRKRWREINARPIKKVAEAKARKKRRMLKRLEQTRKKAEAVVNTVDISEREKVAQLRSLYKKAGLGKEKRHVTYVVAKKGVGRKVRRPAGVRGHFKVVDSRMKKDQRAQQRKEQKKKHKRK
UniProt Q06547, whole entry, looked up: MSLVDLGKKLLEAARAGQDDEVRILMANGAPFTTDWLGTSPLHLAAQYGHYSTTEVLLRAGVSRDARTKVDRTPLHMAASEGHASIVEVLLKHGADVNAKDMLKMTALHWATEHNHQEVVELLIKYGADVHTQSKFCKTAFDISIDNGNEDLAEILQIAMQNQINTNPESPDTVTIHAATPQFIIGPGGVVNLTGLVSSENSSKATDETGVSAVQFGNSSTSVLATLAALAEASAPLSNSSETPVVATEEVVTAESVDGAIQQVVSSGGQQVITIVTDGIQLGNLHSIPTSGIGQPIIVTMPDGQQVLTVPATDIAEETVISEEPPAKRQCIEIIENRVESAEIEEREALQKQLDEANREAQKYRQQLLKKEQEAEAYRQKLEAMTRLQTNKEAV
UniProt Q8IWF2: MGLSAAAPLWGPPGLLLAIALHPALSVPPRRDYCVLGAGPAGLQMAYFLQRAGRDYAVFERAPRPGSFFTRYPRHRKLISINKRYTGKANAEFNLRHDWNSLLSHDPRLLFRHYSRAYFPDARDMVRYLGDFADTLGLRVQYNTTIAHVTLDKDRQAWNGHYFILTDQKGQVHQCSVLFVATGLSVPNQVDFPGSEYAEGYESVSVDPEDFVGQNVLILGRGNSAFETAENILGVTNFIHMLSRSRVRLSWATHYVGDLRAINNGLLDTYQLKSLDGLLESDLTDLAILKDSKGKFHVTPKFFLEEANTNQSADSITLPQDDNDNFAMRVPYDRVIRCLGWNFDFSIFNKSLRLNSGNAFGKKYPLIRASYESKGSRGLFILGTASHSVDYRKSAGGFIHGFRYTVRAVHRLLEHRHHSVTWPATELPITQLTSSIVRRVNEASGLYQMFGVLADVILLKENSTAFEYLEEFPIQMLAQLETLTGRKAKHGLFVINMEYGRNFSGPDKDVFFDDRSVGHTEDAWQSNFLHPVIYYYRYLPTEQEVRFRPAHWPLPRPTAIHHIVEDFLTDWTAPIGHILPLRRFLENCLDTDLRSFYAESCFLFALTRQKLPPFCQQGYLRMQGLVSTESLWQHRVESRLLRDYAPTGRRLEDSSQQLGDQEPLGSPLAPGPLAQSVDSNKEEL
UniProt Q86SR1: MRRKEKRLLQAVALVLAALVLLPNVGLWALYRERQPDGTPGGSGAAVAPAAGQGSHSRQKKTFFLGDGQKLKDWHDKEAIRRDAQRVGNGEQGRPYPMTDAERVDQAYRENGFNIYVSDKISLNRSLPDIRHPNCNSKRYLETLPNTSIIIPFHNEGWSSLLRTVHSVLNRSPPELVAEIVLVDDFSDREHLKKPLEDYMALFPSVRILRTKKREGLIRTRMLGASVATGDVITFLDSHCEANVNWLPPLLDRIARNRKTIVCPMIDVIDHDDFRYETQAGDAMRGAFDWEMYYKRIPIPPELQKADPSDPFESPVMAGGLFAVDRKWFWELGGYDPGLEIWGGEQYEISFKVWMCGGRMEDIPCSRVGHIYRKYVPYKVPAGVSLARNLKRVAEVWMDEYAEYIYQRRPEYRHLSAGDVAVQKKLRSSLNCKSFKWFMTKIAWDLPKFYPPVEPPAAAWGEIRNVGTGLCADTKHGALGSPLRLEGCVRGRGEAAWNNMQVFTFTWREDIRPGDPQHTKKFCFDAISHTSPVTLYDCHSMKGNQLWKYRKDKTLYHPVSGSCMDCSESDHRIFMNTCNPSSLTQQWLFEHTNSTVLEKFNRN
UniProt P23769: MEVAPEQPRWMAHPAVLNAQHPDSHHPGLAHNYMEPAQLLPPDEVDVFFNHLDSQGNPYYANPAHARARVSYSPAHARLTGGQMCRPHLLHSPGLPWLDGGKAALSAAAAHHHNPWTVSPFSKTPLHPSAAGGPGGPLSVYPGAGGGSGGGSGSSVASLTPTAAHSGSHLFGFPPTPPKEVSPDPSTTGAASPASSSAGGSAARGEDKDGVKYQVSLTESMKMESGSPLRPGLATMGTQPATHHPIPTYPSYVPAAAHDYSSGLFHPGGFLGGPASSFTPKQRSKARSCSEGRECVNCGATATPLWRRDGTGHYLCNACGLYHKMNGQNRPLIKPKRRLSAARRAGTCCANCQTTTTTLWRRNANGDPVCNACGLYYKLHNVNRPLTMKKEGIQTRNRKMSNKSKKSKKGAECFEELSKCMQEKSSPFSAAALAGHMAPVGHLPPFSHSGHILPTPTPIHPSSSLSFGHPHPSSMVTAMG
UniProt Q8NCL4: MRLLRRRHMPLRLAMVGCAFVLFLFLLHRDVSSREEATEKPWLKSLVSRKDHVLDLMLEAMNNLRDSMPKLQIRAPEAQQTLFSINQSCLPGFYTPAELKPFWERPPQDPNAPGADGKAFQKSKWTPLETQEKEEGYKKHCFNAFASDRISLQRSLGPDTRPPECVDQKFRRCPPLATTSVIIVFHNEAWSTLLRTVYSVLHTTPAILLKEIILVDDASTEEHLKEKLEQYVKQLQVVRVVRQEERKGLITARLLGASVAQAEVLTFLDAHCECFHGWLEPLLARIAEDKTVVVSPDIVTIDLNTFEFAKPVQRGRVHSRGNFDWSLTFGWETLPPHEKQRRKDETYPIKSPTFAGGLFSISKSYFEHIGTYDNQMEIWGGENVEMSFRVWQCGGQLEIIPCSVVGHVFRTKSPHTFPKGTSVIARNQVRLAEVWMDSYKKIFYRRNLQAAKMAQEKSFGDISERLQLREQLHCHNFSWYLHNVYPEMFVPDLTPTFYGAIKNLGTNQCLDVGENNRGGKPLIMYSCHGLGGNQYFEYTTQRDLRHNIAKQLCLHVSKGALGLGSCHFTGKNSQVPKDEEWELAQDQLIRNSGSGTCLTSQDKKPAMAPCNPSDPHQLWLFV

Experiments:
Assay in all cases: log2 fold change, soluble protein after heating vs DMSO (PISA); higher = thermal stabilisation; K562 cells, 10 uM, 30 min; active = over 0.2 and 3.5 SD of the protein, either way, in both replicates (recomputed)
[1] = compound: CC1=C(C=C(C=C1)NC(=O)C2=CC(=CC=C2)C(C)(C)C#N)NC3=CC4=C(C=C3)N=CN(C4=O)C
Method in brief: (§1)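 Soluble protein was defined as the supernatant after 21,000xg for 90 min. It came from K562 cells at 2×10^6 cells/mL given 10 μM compound for 30 min, heated in aliquots for 3 min across 48°C-58°C, pooled, and extracted in PBS with 0.5% NP-40 at 4°C, and was quantified by TMTpro 16plex LC-MS/MS with equalised channel sums. Thermal stability against control samples, from duplicates, is reported as log2 fold change.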

[2] = compound: CC1=C(C=C(C=C1)NC(=O)C2=CC(=CC=C2)N(C)C)NC(=O)C3=CC=C(C=C3)O
Method in brief: as §1

[3] = compound: CC1=CC=C(C=C1)SC2=C3C=C(SC3=CN=C2)C(=O)N
Method in brief: as §1

[4] = compound: CC1=NC(=CC=C1)C2=C(N=C(N2)C(C)(C)C)C3=CC4=NC=CN=C4C=C3
Method in brief: as §1

[5] = compound: CCCCN(Cc1ccc(C(=O)NO)cc1)C(=O)Nc1ccccc1 [Nexturastat A]
Method in brief: as §1

[6] = compound: CCCS(=O)(=O)Nc1ccc(F)c(C(=O)c2c[nH]c3ncc(-c4ccc(Cl)cc4)cc23)c1F [vemurafenib]
Method in brief: as §1

[7] = compound: CCCS(=O)(=O)Nc1ccc(F)c(C(=O)c2c[nH]c3ncc(Cl)cc23)c1F
Method in brief: as §1

[8] = compound: CCCc1cc(C)[nH]c(=O)c1CNC(=O)c1cc(-c2ccnc(N3CCN(C)CC3)c2)cc2c1cnn2C(C)C
Method in brief: as §1

[9] = compound: CCN(CC)Cc1ccc2cc(COC(=O)Nc3ccc(C(=O)NO)cc3)ccc2c1 [givinostat]
Method in brief: as §1

[10] = compound: CCN(CCCOc1ccc2c(Nc3cc(CC(=O)Nc4cccc(F)c4)[nH]n3)ncnc2c1)CCOP(=O)(O)O [barasertib]
Method in brief: as §1

Measured: log2 fold change

GAPVD1 isoform 6 (UniProt Q14C86)
inactive: [1] 0.004 | [2] -0.041 | [3] 0.046 | [4] 0.019 | [5] 0.025 | [6] 0.007 | [7] 0.13 | [8] 0.047 | [9] 0.047 | [10] 0.034

GART (UniProt P22102)
inactive: [1] 0.07 | [2] -0.028 | [3] 0.017 | [4] 0.009 | [5] -0.036 | [6] 0.049 | [7] 0.041 | [8] 0.082 | [9] 0.011 | [10] 0.042

FPGT (UniProt O14772)
inactive: [1] 0.035 | [2] 0.032 | [3] 0.033 | [4] 0.042 | [5] -0.041 | [6] 0.053 | [7] 0.02 | [8] 0.058 | [9] -0.001 | [10] 0.009

GAB1 isoform 2 (UniProt Q13480)
inactive: [1] 0.049 | [2] -0.063 | [3] 0.037 | [4] -0.061 | [5] -0.051 | [6] -0.151 | [7] -0.007 | [8] 0.011 | [9] 0.052 | [10] 0.067

GDI2 (UniProt P50395)
inactive: [1] 0.011 | [2] -0.014 | [3] -0.014 | [4] 0.014 | [5] -0.05 | [6] -0.014 | [7] 0.011 | [8] -0.015 | [9] -0.078 | [10] 0.018

GAMT (UniProt Q14353)
inactive: [1] -0.019 | [2] -0.016 | [3] -0.296 | [4] 0.143 | [5] -0.022 | [6] 0.002 | [7] 0.139 | [8] 0.031 | [9] 0.032 | [10] 0.044

GALK1 isoform 2 (UniProt P51570)
inactive: [1] 0.244 | [2] 0.004 | [3] 0.144 | [4] 0.02 | [5] -0.082 | [6] 0.144 | [7] 0.183 | [8] 0.033 | [9] 0.018 | [10] -0.007

GC isoform 3 (UniProt P02774)
inactive: [1] -0.003 | [2] 0.459 | [3] 0.682 | [4] -0.305 | [5] 0.035 | [6] 0.215 | [7] 0.018 | [9] -0.129 | [10] -0.103

GEMIN2 (UniProt O14893)
inactive: [1] -0.073 | [2] 0.033 | [3] 0 | [4] -0.002 | [5] 0.243 | [6] -0.028 | [7] -0.023 | [8] 0.029 | [10] 0.078

FRY (UniProt Q5TBA9)
inactive: [1] 0.026 | [5] -0.202 | [6] 0.075 | [8] 0.127 | [9] 0.145 | [10] 0.002

2 successive records out of the list so far, for reference:
GEMIN2 (UniProt O14893)
inactive: [1] -0.073 | [2] 0.033 | [3] 0 | [4] -0.002 | [5] 0.243 | [6] -0.028 | [7] -0.023 | [8] 0.029 | [10] 0.078

FRY (UniProt Q5TBA9)
inactive: [1] 0.026 | [5] -0.202 | [6] 0.075 | [8] 0.127 | [9] 0.145 | [10] 0.002

The list goes on:

FUOM (UniProt A2VDF0)
inactive: [1] -0.076 | [4] 0.066 | [6] 0.126 | [8] -0.155 | [10] 0.051

FUT1 (UniProt P19526)
inactive: [1] -0.198 | [5] -0.003

FXYD5 (UniProt Q96DB9)
inactive: [1] -0.084 | [2] -0.083 | [3] 0.187 | [4] 0.194 | [6] 0.092 | [7] -0.049

FPGS (UniProt Q05932)
inactive: [1] -0.058 | [2] 0.132 | [3] 0.127 | [4] 0.008 | [5] 0.193 | [6] 0.077 | [7] -0.078 | [8] 0.167 | [9] -0.021 | [10] 0.042

GID4 (UniProt Q8IVV7)
active: [7] -0.271
inactive: [1] 0.028 | [2] 0.003 | [3] -0.07 | [5] 0.058 | [6] -0.181 | [8] -0.035 | [9] -0.03 | [10] -0.1

FTSJ3 (UniProt Q8IY81)
inactive: [1] -0.036 | [2] -0.02 | [3] 0.059 | [7] -0.201 | [9] 0.051

GABPB1 (UniProt Q06547)
inactive: [1] 0.036 | [2] 0.019 | [3] 0.002 | [4] -0.06 | [6] 0.24 | [7] 0.012 | [9] 0.117 | [10] 0.118

FOXRED2 (UniProt Q8IWF2)
inactive: [2] -0.115 | [3] -0.087 | [4] -0.078 | [5] 0.018 | [6] -0.017 | [7] -0.172 | [8] 0.013 | [9] 0.028

GALNT10 (UniProt Q86SR1)
inactive: [1] -0.005 | [3] 0.038 | [4] -0.204 | [5] -0.035 | [7] 0.071 | [8] 0.104 | [10] -0.075

FOXJ3 (UniProt Q9UPW0)
inactive: [2] 0.122 | [3] -0.078 | [4] 0.029 | [5] -0.033 | [6] 0.077 | [7] -0.044 | [8] -0.101 | [9] 0.032 | [10] 0.115

GATA2 (UniProt P23769)
inactive: [1] -0.187 | [2] 0.039 | [3] 0.02 | [6] 0.015 | [7] 0.002 | [8] 0.003 | [9] -0.087 | [10] -0.01

GALNT6 (UniProt Q8NCL4)
inactive: [1] -0.044 | [2] -0.117 | [3] -0.001 | [4] -0.186 | [5] 0.103 | [7] -0.062 | [8] -0.046 | [9] -0.277 | [10] 0.038
